This is one part of the list.
B1: il2ra_site1_2b5i_sap_13_mot_HHH_b2_04463_af2_000000056_0001_43_55_H_._HHH_b2_08206_af2_0001_0000100008_0000001_0_0001 (protein)
chain: SSSSSSREVLELFHEAHELAREGDEEKAREVLEEAEELAEREGSPNVLRMVRAALRASNSSSSSS
B2: il2ra_site1_3nfp_sap_12_mot_HHH_b2_06110_000000263_0001_43_57_H_._HHH_b2_06718_0001_0001000039_0000001_0_0001_af2pred_0001_af2pred (protein)
chain: TEALVILLRFREEKTGDPEEAVRLVVKLIEEHLRVPPEEAAEFLREALEKVDEELAEKVEELLRK
B3: il2ra_site2_3nfp_normal_mot_HHH_b1_07095_000000265_0001_1_20_H_._HHH_b1_05163_0001_0000400031_0000001_0 (protein)
chain: SSSSDEFEELEERIRRAIEEGDEELVRELLRRISQLAFEKRNFELFAIVNELMELLLELESSSSS
B4: il2ra_site1_2b5i_sap_7_mot_HHH_b1_01346_af2_000000027_0001_1_20_H_._HHH_b2_04126_af2_0001_0000100001_0000001_0_0001 (protein)
chain: SSSSDEADEQLEELFHEASRLYRNGNPEEARRVLEEAIELAEELGNPSDLKDLRRFLELLKSSSS
B5: il2ra_site1_1z92_normal_mot_HHH_b1_05862_af2_000000270_0001_22_38_H_._HHH_b1_00145_0001_0000200011_0000001_0 (protein)
chain: SSSSDRAEEWAFKLAELVLERYERVGDPKAREQVEFLIEDLELLGNPELAEELEEILERIDSSSS
B6: il2ra_site2_2erj_normal_mot_HHH_b2_06005_000000006_0001_1_15_H_._HHH_b2_03858_0001_0000100005_0000001_0 (protein)
chain: SSSSDEEEIEERIEELLEEARKIPDPREAERLVREAFELAYRLNDPRLALEVMRVAEELFSSSSS
B7: il2ra_site2_3nfp_sap_22_mot_HHH_b1_03540_000000074_0001_22_39_H_._3041c9cb0459c08fbffb1fc7c11e07cd_0001_af2_0001_0000800023_0000001_0_0001 (protein)
chain: GPVEETIKEAIERGDPEYATDVLAALIIIVRAWGDPALEEHLEEAEELVEELDPEVLRLAEERAN
B8: il2ra_site2_3nfp_sap_25_mot_HHH_b2_07186_000000286_0001_42_55_H_._HHH_b2_06885_0001_0000200024_0000001_0_0001 (protein)
chain: SSSSDEEEAEELLRQLERALEEGDEELFRELAQRVSHLVFKLGDHELFAKLAELLYRFQSLSSSS
B9: il2ra_site1_1z92_normal_mot_HHH_b2_07193_000000005_0001_24_40_H_._66959ead3e6c57cb3ef8243f3eb758e0_0001_1_af2_0001_0000300033_0000001_0_af2pred_dldesign_0_af2pr … (protein)
chain: SQAEQELRDAVESEDEAALREFLATLLKDTGNPELAEQFLRYLVKRLGLPEEVLERLRALLEELA
B10: il2ra_site1_1z92_sap_15_mot_HHH_b1_01245_000000029_0001_23_39_H_._HHH_b2_06256_af2_0001_0000200020_0000001_0_0001_af2pred_0001_af2pred (protein)
chain: SHAEKFIREMLERKLKKDVEAAAKLLLKSARSARDPERAEAAEEALELVKRDPEEAERLIRELLK
B11: il2ra_site2_3nfp_normal_mot_HHH_b1_01086_000000225_0001_20_36_H_._HHH_b1_05415_0001_0000400024_0000001_0_af2pred_0001_af2pred (protein)
chain: SSSSSDELEEEVEELLEQAKRIPDPFERFAALAEAAALVIENNNEELEELVKKVSRELQSSSSSS
B12: il2ra_site1_2b5i_sap_11_mot_HHH_b1_06900_af2_000000048_0001_21_36_H_._a1725d017d863e7f4c76c21e96fab134_0001_1_af2_0001_0000100009_0000001_0_0001_af2pred_0001_af … (protein)
chain: SSSSSTLAQKAAELLEEANEADRNGDPEEARKLLEEAEKIAEEAGSKSLLRSIRVALEQLSSSSS
B13: il2ra_site2_2erj_sap_24_mot_HHH_eva_0385_af2_000000151_0001_25_42_H_._HHH_b1_07782_af2_0001_0000100008_0000001_0_0001 (protein)
chain: SSSSDERLRELYELAARLTRAIFEGDEELIRELAEEIRRIIEEAKSENAREILEALERRGSSSSS
B14: il2ra_site1_1z92_normal_mot_HHH_b2_04375_000000267_0001_42_56_H_._HHH_b2_00211_af2_0001_0000200032_0000001_0 (protein)
chain: SSSDEEELEEFAEKVVRRLVEELGLSEHTEEALRKDAELLIRLGFSEKAIKIALESNARLASSSS
B15: il2ra_site2_3nfp_sap_17_mot_73f63e3ba0c5fbd29b02c38bc3203c89_0001_1_000000101_0001_17_33_H_._HHH_b1_05402_0001_0000200013_0000001_0_0001_af2pred_0001_1_af2pred_ … (protein)
chain: SSSSSLEEVVERAKELAKEVTDRRVRFELRALAFQLELTGDPKLEELLEKLIRLVEEALKGSSSS
B16: il2ra_site2_2erj_sap_22_mot_HHH_b1_04560_000000168_0001_43_57_H_._HHH_b2_07495_0001_0000400017_0000001_0_0001_af2pred_0001_1_af2pred_swapped (protein)
chain: SSSDEEVEERLERLLEELVKELNLSETAELLLKLLVETLLKLGASEEEAKRQVELSARNLAESSS
B17: il2ra_site1_2b5i_normal_mot_571275078a2094b209398d2bd903418f_0001_1_af2_000000140_0001_35_48_H_._f5ff40796168375b462bec8614a1db4a_0001_1_0001_0000200012_0000001 … (protein)
chain: SRRYTEELRQLIEELGDPEEAVEILKRELEKLGHSPEAVLRFIALALSKVGDPELARRILEELKR
B18: il2ra_site1_1z92_normal_mot_01209686ea234b34325f918445e6eade_0001_af2_000000154_0001_18_33_H_._HHH_b1_05532_af2_0001_0000400046_0000001_0_af2pred_0001_af2pred_s … (protein)
chain: SSSSDEEEEAQRLAEEIAEELGLSEEDRKALERDAEAAFKMGFSPEKIERALRRLVKLFLSSSSS
B19: il2ra_site1_1z92_sap_14_mot_HHH_b2_04375_000000267_0001_42_56_H_._HHH_b1_00305_0001_0000100012_0000001_0_0001_af2pred_dldesign_0_af2pred (protein)
chain: SSSSSDPDALDDKVYELFLKTYHVDKEEREKLLEEAIKLAKEAGFEKIVKELEEYKKLLSSSSSS

Molecular target: il2ra, P01589
Assay: yeast display titration

Row | Binder | apparent Kd
1 | B1 | inactive: no binding seen
2 | B2 | inactive: no binding seen
3 | B3 | inactive: no binding seen
4 | B4 | inactive: no binding seen
5 | B5 | inactive: no binding seen
6 | B6 | inactive: no binding seen
7 | B7 | inactive: no binding seen
8 | B8 | inactive: no binding seen
9 | B9 | inactive: no binding seen
10 | B10 | inactive: no binding seen
11 | B11 | inactive: no binding seen
12 | B12 | inactive: no binding seen
13 | B13 | inactive: no binding seen
14 | B14 | inactive: no binding seen
15 | B15 | inactive: no binding seen
16 | B16 | inactive: no binding seen
17 | B17 | inactive: no binding seen
18 | B18 | inactive: no binding seen
19 | B19 | inactive: no binding seen

Entries 10 to 11, reprinted for reference:
Row | Binder | apparent Kd
10 | B10 | inactive: no binding seen
11 | B11 | inactive: no binding seen

Reference: article PMC10163288
